Not every detail of the peptide structures is certain; ends, links or a residue may be inferred. Where no end group is shown, it is not given here.
Columns and labels:
[1] = test system: collagen Iα1; test: mRNA expression of extracellular matrix component genes (RT-PCR): collagen Iα1; format: cell-based, mouse; conditions: NIH3T3 cells; peptide at 10 µM, 50 µM, and 100 µM; 24 hours; FIG. 1
[2] = test system: fibronectin; test: mRNA expression of extracellular matrix component genes (RT-PCR): fibronectin; format: cell-based, mouse; conditions: NIH3T3 cells; peptide at 10 µM, 50 µM, and 100 µM; 24 hours; FIG. 1
[3] = test system: elastin; test: mRNA expression of extracellular matrix component genes (RT-PCR): elastin; format: cell-based, mouse; conditions: NIH3T3 cells; peptide at 10 µM, 50 µM, and 100 µM; 24 hours; FIG. 1
[4] = test system: SIRT1 (Sirtuin 1); test: mRNA expression of skin barrier-related genes (RT-PCR): SIRT1; format: cell-based, human; conditions: HaCaT cells; peptide at 10 µM, 50 µM, and 100 µM; 24 hours; FIG. 2
[5] = test system: AQP3 (Aquaporin 3); test: mRNA expression of skin barrier-related genes (RT-PCR): AQP3; format: cell-based, human; conditions: HaCaT cells; peptide at 10 µM, 50 µM, and 100 µM; 24 hours; FIG. 2
[6] = test system: collagen Iα1; test: Restoration of extracellular matrix gene expression reduced by UV irradiation (RT-PCR): collagen Iα1; format: cell-based, mouse; conditions: NIH3T3 cells; UVA at 6 J/cm^2; peptide at 10 µM, 50 µM, and 100 µM, 1 hour before and 6 hours after irradiation; FIG. 3
[7] = test system: fibronectin; test: Restoration of extracellular matrix gene expression reduced by UV irradiation (RT-PCR): fibronectin; format: cell-based, mouse; conditions: NIH3T3 cells; UVA at 6 J/cm^2; peptide at 10 µM, 50 µM, and 100 µM, 1 hour before and 6 hours after irradiation; FIG. 3
[8] = test system: elastin; test: Restoration of extracellular matrix gene expression reduced by UV irradiation (RT-PCR): elastin; format: cell-based, mouse; conditions: NIH3T3 cells; UVA at 6 J/cm^2; peptide at 10 µM, 50 µM, and 100 µM, 1 hour before and 6 hours after irradiation; FIG. 3
[9] = test system: SIRT1 (Sirtuin 1); test: Restoration of skin barrier-related gene expression reduced by UV irradiation (RT-PCR): SIRT1; format: cell-based, human; conditions: HaCaT cells; UVB at 20 mJ/cm^2; peptide at 10 µM, 50 µM, and 100 µM, 1 hour before and 4 hours after irradiation; FIG. 4
[10] = test system: AQP3 (Aquaporin 3); test: Restoration of skin barrier-related gene expression reduced by UV irradiation (RT-PCR): AQP3; format: cell-based, human; conditions: HaCaT cells; UVB at 20 mJ/cm^2; peptide at 10 µM, 50 µM, and 100 µM, 1 hour before and 4 hours after irradiation; FIG. 4
[11] = test system: MMP-1; test: Inhibition of UV-induced MMP-1 expression (Western blot), NIH3T3 cells; format: cell-based, mouse; conditions: UVA at 6 J/cm^2, peptide at 10 µM, 50 µM, and 100 µM, 1 hour before and 24 hours after irradiation, FIG. 5A
[12] = test system: MMP-2; test: Inhibition of UV-induced MMP-2 expression (Western blot), NIH3T3 cells; format: cell-based, mouse; conditions: UVA at 6 J/cm^2, peptide at 10 µM, 50 µM, and 100 µM, 1 hour before and 24 hours after irradiation, FIG. 5A
[13] = test system: MMP-1; test: Inhibition of UV-induced MMP-1 expression (Western blot), HaCaT cells; format: cell-based, human; conditions: UVB at 15 mJ/cm^2, peptide at 10 µM, 50 µM, and 100 µM, 1 hour before and 24 hours after irradiation, FIG. 5B
[14] = test system: MMP-2; test: Inhibition of UV-induced MMP-2 expression (Western blot), HaCaT cells; format: cell-based, human; conditions: UVB at 15 mJ/cm^2, peptide at 10 µM, 50 µM, and 100 µM, 1 hour before and 24 hours after irradiation, FIG. 5B

DRKKIQNK [peptide of SEQ ID NO: 1, DRKKIQNK]
mRNA expression level of collagen Iα1 gene [1]: increased | mRNA expression level of fibronectin gene [2]: increased | mRNA expression level of elastin gene [3]: increased | mRNA expression level of SIRT1 (Sirtuin 1) gene [4]: increased | mRNA expression level of AQP3 (Aquaporin 3) gene [5]: increased | mRNA expression level of collagen Iα1 gene reduced by UV irradiation [6]: increased again | mRNA expression level of fibronectin gene reduced by UV irradiation [7]: increased again | mRNA expression level of elastin gene reduced by UV irradiation [8]: increased again | mRNA expression level of SIRT1 gene reduced by UV irradiation [9]: restored | mRNA expression level of AQP3 gene reduced by UV irradiation [10]: restored | increase in MMP-1 expression induced by UV irradiation [11]: inhibited | increase in MMP-2 expression induced by UV irradiation [12]: inhibited | increase in MMP-1 expression induced by UV irradiation [13]: inhibited | increase in MMP-2 expression induced by UV irradiation [14]: inhibited
